Results: PubChem BioAssay AID493014 (National Center for Advancing Translational Sciences (NCATS), 2011)
Some of the results follow. Further columns of the screen follow, without active or inactive calls. Most of these compounds were active or inconclusive in the main read-out, so they are no random draw. Words in brackets tell the shape of the fitted curve; partial curves, single points and poor fits give uncertain potencies.

Assay: qHTS Assay to Find Inhibitors of Chronic Active B-Cell Receptor Signaling
Details: ABC-DLBCL IkBa-CBG/CBR reporter, luminescence ratio (green luciferase fused to IkBa over red control in TMD8 lymphoma cells), 4 h
Method in brief: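 TMD8 human ABC-DLBCL cells with doxycycline-inducible IκBα–green luciferase fusion and unfused red luciferase, in 0.5% FBS medium; compounds up to 46 uM, 4 h at 37C. Green/red luminescence ratio, filter-overlap corrected, fitted to concentration-response curves.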

[1] = measured here: CBR red luminescence, cell number

Row | SMILES | AC50 [1] | AC50 (measured here: IkBa-CBG green luminescence)
1 | O=C(CN1CCOCC1)Nc1nc2ccc([N+](=O)[O-])cc2s1 | 35.5 µM [falling, single point] | –
2 | CC(=O)c1cccc(NC(=O)COc2ccccc2C(=O)c2cc(C#N)c(=O)n(C3CCCCC3)c2)c1 | 1.46 µM [rising, partial curve] | –
3 | O=C(CCc1ccccc1)Nc1nnc(-c2ccc3c(c2)CCCC3)o1 | 4.61 µM [rising, partial curve, poor fit] | –
4 | O=C(NC(NC(=S)Nc1ccc(Cl)c(Cl)c1)C(Cl)(Cl)Cl)c1ccco1 (stereo not drawn) | 35.5 µM [falling, single point] | 22.4 µM [rising, single point]
5 | COc1ccc2c(c1)cc(C(=O)N[C@@H](Cc1ccccc1)C(=O)O)n2C | 2.51 µM [falling, partial curve, poor fit] | –
6 | CC(C)OC(=O)c1cccnc1SCC(=O)Nc1ccc(C(F)(F)F)cc1Cl | 3.16 µM [rising, full curve] | –
7 | CN(Cc1ccccc1)c1ccc2nnc(-c3ccccc3)n2n1 | 20.6 µM [falling, single point] | –
8 | Oc1ccc2ccccc2c1CN1CCN(C/C=C/c2ccccc2)CC1 | 11.2 µM [falling, single point] | –
9 | C/C(CC(=O)Nc1cc(Cl)ccc1Cl)=N\NC(=O)c1ccccc1Br | 7.94 µM [falling, partial curve] | –
10 | COc1ccc(NC(=O)Nc2ccccc2SC)cc1OC | 14.1 µM [falling, partial curve, poor fit] | –
11 | CC(C)=CC(=O)OCC(=O)Nc1cc(C)ccc1C | 6.31 µM [rising, partial curve, poor fit] | –
12 | O=C(COC(=O)c1cccs1)c1ccc2ccccc2c1 | 29.1 µM [falling, single point] | –
13 | O=c1c2ccccc2[nH]c(=S)n1CCC1=CCCCC1 | 0.58 µM [rising, full curve, poor fit] | –
14 | O=S(=O)(/N=C(/NC(=S)Nc1ccccc1)c1ccccc1)c1ccc(Cl)cc1 | 3.98 µM [rising, partial curve] | –
15 | COc1ccc(N2CCc3c(C)nc4c(OC)cc(OC)cc4c32)cc1 | 8.91 µM [falling, partial curve, poor fit] | –
16 | Cc1ccc(Cl)cc1N1CCN(C(=O)CCCCCn2c(=O)[nH]c3ccccc3c2=O)CC1 | 35.5 µM [falling, single point] | –
17 | NNC(=O)c1ccc(COc2ccc3c(c2)CCC3)o1 | 11.6 µM [falling, partial curve] | –
18 | C/C(=N\NC(=O)c1ccccc1O)c1c(O)cc(C)oc1=O | 2 µM [falling, full curve, poor fit] | –
19 | O=C(C(=O)N1CCCCCC1)c1c[nH]c2ccccc12 | 0.891 µM [falling, full curve, poor fit] | –
20 | C=CCN1N=C(/C=C/c2ccccc2)CCC1=O | 11.2 µM [rising, partial curve] | –
21 | CNC(=O)c1sc(-c2cccnc2)nc1C | 35.5 µM [falling, single point] | –

Row | SMILES | AC50 [1] | AC50 (measured here: IkBa-CBG green luminescence)
22 | Fc1ccc(-c2nnc(SCc3cccnc3)o2)cc1 | 35.5 µM [falling, single point] | –
23 | CC(C)n1c(CCCO)nc2ccccc21 | 35.5 µM [rising, single point] | –
24 | O=C(O)C1Nc2c(C(F)(F)F)ccc(Cl)c2C2C=CCC12 (stereo not drawn) | 11.2 µM [rising, partial curve, poor fit] | –
25 | CC(NC(=O)C1CCC(CNc2c(N3CCOCC3)c(=O)c2=O)CC1)c1ccccc1 (stereo not drawn) | 25.9 µM [rising, partial curve, poor fit] | –
26 | Cc1nn(C)c(C)c1S(=O)(=O)N(CC(=O)N1CCc2ccccc21)c1ccc(C(C)C)cc1 | 6.51 µM [rising, single point] | –
27 | CC(C)c1ccccc1OCC(O)CN(CC(O)COc1cccc2ccccc12)C(C)C (stereo not drawn) | 35.5 µM [falling, single point] | –
28 | COc1ccccc1C(=O)Nc1ccc(S(=O)(=O)N2CCCCC2c2cccnc2)cc1 (stereo not drawn) | 7.08 µM [falling, partial curve] | –
29 | CCN(CC)c1ccc(S(=O)(=O)N2CCOCC2)cc1NC(=O)CN1CCc2ccccc2C1 | 15.8 µM [falling, single point] | –
30 | COc1ccc(C(=O)/C=C/Nc2ccc(C)cn2)cc1OC | 16.4 µM [falling, single point] | –
31 | CC(=O)NCC(=O)OCc1ccc([N+](=O)[O-])cc1 | 5.8 µM [rising, full curve, poor fit] | –
32 | COc1cc2nc(NC(=O)c3ccco3)sc(=O)c2cc1OC | 3.55 µM [falling, partial curve, poor fit] | –
33 | C/C(CC(=O)NC(C)(C)C)=N\NC(=O)c1ccccc1N | 11.2 µM [falling, partial curve] | –
34 | CC(C)(C)C(=O)N1CCC[C@H]1C(O)(c1ccccc1)c1ccccc1 | 29.1 µM [falling, single point] | –
35 | CC1Cc2ccccc2N1S(=O)(=O)c1cnc(Cl)c(Cl)c1 (stereo not drawn) | 3.98 µM [falling, single point] | –
36 | COc1cc(CNC(=O)OCC(C)C)cc(OC)c1OC | 10 µM [rising, partial curve] | –
37 | O=C(c1ccc(Cl)cc1)C1CCCN(C(=O)/C=C/c2ccccn2)C1 (stereo not drawn) | 6.31 µM [rising, single point] | –
38 | O=C(CN1C(=O)S/C(=C\c2ccccc2)C1=O)Nc1cc([N+](=O)[O-])ccc1O | 31.6 µM [falling, single point] | –
39 | c1c2c(cc3sc(N4CCCCC4)nc13)OCO2 | 11.2 µM [falling, single point] | –
40 | Cc1ccc2nc(NC(=O)CN3C(=O)NC4(CCCC4)C3=O)sc2c1 | 8.2 µM [falling, partial curve] | –
41 | COCCNC(=O)Cn1nc(Cc2ccncc2)c2ccccc2c1=O | 35.5 µM [rising, single point] | –
42 | CC(C)OCCCNc1nc2c([nH]1)c(=O)n(C)c(=O)n2C | 17.8 µM [falling, single point] | –

Looked up one by one from above:
Row | SMILES | AC50 [1] | AC50 (measured here: IkBa-CBG green luminescence)
31 | CC(=O)NCC(=O)OCc1ccc([N+](=O)[O-])cc1 | 5.8 µM [rising, full curve, poor fit] | –
40 | Cc1ccc2nc(NC(=O)CN3C(=O)NC4(CCCC4)C3=O)sc2c1 | 8.2 µM [falling, partial curve] | –
22 | Fc1ccc(-c2nnc(SCc3cccnc3)o2)cc1 | 35.5 µM [falling, single point] | –
